Differences between knockout arms are mostly noise.
Tested on: BT-20
Assay: relative cell number vs DMSO control (72 h) (% of DMSO); higher = less growth inhibition (more cells)
Method: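 QMAP-Seq: a pool of 5 breast cancer cell lines (ZR-75-1, SKBR3, HCC-38, MDA-MB-231, BT-20), each carrying 12 doxycycline-inducible Cas9 sgRNA perturbations (11 knockouts plus non-targeting sgNT), was treated with compounds for 72 h at four 10-fold doses (10 nM-10 uM or 1 nM-1 uM range). Barcodes were amplified and sequenced, and cell number was interpolated from 293T spike-in standard curves. The result is expressed as % of the median of DMSO wells. Two biological replicates.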

COc1cc(OC)c(/C=C/S(=O)(=O)Cc2ccc(OC)c(NCC(=O)O)c2)c(OC)c1 [Rigosertib]
Conditions | relative cell number
sgRNA knockout: sgATF3, 10 nM | 104
sgRNA knockout: sgATF3, 100 nM | 62.7
sgRNA knockout: sgATF3, 1000 nM | 28.8
sgRNA knockout: sgATF3, 10000 nM | 30.3
sgRNA knockout: sgATF4, 10 nM | 96.6
sgRNA knockout: sgATF4, 100 nM | 63.8
sgRNA knockout: sgATF4, 1000 nM | 38.2
sgRNA knockout: sgATF4, 10000 nM | 33.8
sgRNA knockout: sgATF6, 10 nM | 98.6
sgRNA knockout: sgATF6, 100 nM | 57.8
sgRNA knockout: sgATF6, 1000 nM | 32
sgRNA knockout: sgATF6, 10000 nM | 32.6
sgRNA knockout: sgATG7, 10 nM | 85.2
sgRNA knockout: sgATG7, 100 nM | 58.63
sgRNA knockout: sgATG7, 1000 nM | 36.7
sgRNA knockout: sgATG7, 10000 nM | 34.3
sgRNA knockout: sgERN1, 10 nM | 85.3
sgRNA knockout: sgERN1, 100 nM | 68
sgRNA knockout: sgERN1, 1000 nM | 31.4
sgRNA knockout: sgERN1, 10000 nM | 31.8
sgRNA knockout: sgHSF1, 10 nM | 91.1
sgRNA knockout: sgHSF1, 100 nM | 70.6
sgRNA knockout: sgHSF1, 1000 nM | 25.76
sgRNA knockout: sgHSF1, 10000 nM | 34.2
sgRNA knockout: sgHSF2, 10 nM | 82.8
sgRNA knockout: sgHSF2, 100 nM | 57.5
sgRNA knockout: sgHSF2, 1000 nM | 34.4
sgRNA knockout: sgHSF2, 10000 nM | 29.8
sgRNA knockout: sgKEAP1, 10 nM | 93.5
sgRNA knockout: sgKEAP1, 100 nM | 55
sgRNA knockout: sgKEAP1, 1000 nM | 31.5
sgRNA knockout: sgKEAP1, 10000 nM | 33.8
sgRNA knockout: sgNFE2L2, 10 nM | 83.4
sgRNA knockout: sgNFE2L2, 100 nM | 63.5
sgRNA knockout: sgNFE2L2, 1000 nM | 33
sgRNA knockout: sgNFE2L2, 10000 nM | 34.4
sgRNA knockout: sgSLC35F2, 10 nM | 93.1
sgRNA knockout: sgSLC35F2, 100 nM | 65
sgRNA knockout: sgSLC35F2, 1000 nM | 41
sgRNA knockout: sgSLC35F2, 10000 nM | 37.4
sgRNA knockout: sgXBP1, 10 nM | 102
sgRNA knockout: sgXBP1, 100 nM | 62.6
sgRNA knockout: sgXBP1, 1000 nM | 35.1
sgRNA knockout: sgXBP1, 10000 nM | 39.7

Cc1ccc(Nc2nccc(N(C)c3ccc4c(C)n(C)nc4c3)n2)cc1S(N)(=O)=O [Pazopanib]
Conditions | relative cell number
sgRNA knockout: sgATF3, 10 nM | 93
sgRNA knockout: sgATF3, 100 nM | 89.7
sgRNA knockout: sgATF3, 1000 nM | 95.6
sgRNA knockout: sgATF3, 10000 nM | 75.7
sgRNA knockout: sgATF4, 10 nM | 108
sgRNA knockout: sgATF4, 100 nM | 100
sgRNA knockout: sgATF4, 1000 nM | 88.9
sgRNA knockout: sgATF4, 10000 nM | 84
sgRNA knockout: sgATF6, 10 nM | 94.2
sgRNA knockout: sgATF6, 100 nM | 97.2
sgRNA knockout: sgATF6, 1000 nM | 106
sgRNA knockout: sgATF6, 10000 nM | 67.2
sgRNA knockout: sgATG7, 10 nM | 96.5
sgRNA knockout: sgATG7, 100 nM | 92.2
sgRNA knockout: sgATG7, 1000 nM | 87.6
sgRNA knockout: sgATG7, 10000 nM | 73.9
sgRNA knockout: sgERN1, 10 nM | 101
sgRNA knockout: sgERN1, 100 nM | 89.9
sgRNA knockout: sgERN1, 1000 nM | 94.84
sgRNA knockout: sgERN1, 10000 nM | 77.1
sgRNA knockout: sgHSF1, 10 nM | 106
sgRNA knockout: sgHSF1, 100 nM | 91.925
sgRNA knockout: sgHSF1, 1000 nM | 108
sgRNA knockout: sgHSF1, 10000 nM | 78.5
sgRNA knockout: sgHSF2, 10 nM | 96.6
sgRNA knockout: sgHSF2, 100 nM | 102
sgRNA knockout: sgHSF2, 1000 nM | 112
sgRNA knockout: sgHSF2, 10000 nM | 76.6
sgRNA knockout: sgKEAP1, 10 nM | 100
sgRNA knockout: sgKEAP1, 100 nM | 91.7
sgRNA knockout: sgKEAP1, 1000 nM | 102
sgRNA knockout: sgKEAP1, 10000 nM | 82.8
sgRNA knockout: sgNFE2L2, 10 nM | 84.4
sgRNA knockout: sgNFE2L2, 100 nM | 85.9
sgRNA knockout: sgNFE2L2, 1000 nM | 93
sgRNA knockout: sgNFE2L2, 10000 nM | 76.9
sgRNA knockout: sgSLC35F2, 10 nM | 104
sgRNA knockout: sgSLC35F2, 100 nM | 99.8
sgRNA knockout: sgSLC35F2, 1000 nM | 105
sgRNA knockout: sgSLC35F2, 10000 nM | 79.4
sgRNA knockout: sgXBP1, 10 nM | 103
sgRNA knockout: sgXBP1, 100 nM | 91.5
sgRNA knockout: sgXBP1, 1000 nM | 113
sgRNA knockout: sgXBP1, 10000 nM | 81.2

CC[C@]1(O)C[C@H]2CN(CCc3c([nH]c4ccccc34)[C@@](C(=O)OC)(c3cc4c(cc3OC)N(C=O)[C@H]3[C@@](O)(C(=O)OC)[C@H](OC(C)=O)[C@]5(CC)C=CCN6CC[C@]43[C@@H]65)C2)C1 [Vincristine]
Conditions | relative cell number
sgRNA knockout: sgATF3, 10 nM | 24.3
sgRNA knockout: sgATF3, 100 nM | 31.7
sgRNA knockout: sgATF3, 1000 nM | 41.6
sgRNA knockout: sgATF3, 10000 nM | 38.2
sgRNA knockout: sgATF4, 10 nM | 30.1
sgRNA knockout: sgATF4, 100 nM | 31.6
sgRNA knockout: sgATF4, 1000 nM | 39.3
sgRNA knockout: sgATF4, 10000 nM | 39.2
sgRNA knockout: sgATF6, 10 nM | 27
sgRNA knockout: sgATF6, 100 nM | 25.9
sgRNA knockout: sgATF6, 1000 nM | 33.8
sgRNA knockout: sgATF6, 10000 nM | 38.3
sgRNA knockout: sgATG7, 10 nM | 20.4
sgRNA knockout: sgATG7, 100 nM | 31.4
sgRNA knockout: sgATG7, 1000 nM | 50.6
sgRNA knockout: sgATG7, 10000 nM | 36.1
sgRNA knockout: sgERN1, 10 nM | 29.7
sgRNA knockout: sgERN1, 100 nM | 26.3
sgRNA knockout: sgERN1, 1000 nM | 37.6
sgRNA knockout: sgERN1, 10000 nM | 41.1
sgRNA knockout: sgHSF1, 10 nM | 25
sgRNA knockout: sgHSF1, 100 nM | 20.5
sgRNA knockout: sgHSF1, 1000 nM | 39.6
sgRNA knockout: sgHSF1, 10000 nM | 37.5
sgRNA knockout: sgHSF2, 10 nM | 30.3
sgRNA knockout: sgHSF2, 100 nM | 24.5
sgRNA knockout: sgHSF2, 1000 nM | 28.6
sgRNA knockout: sgHSF2, 10000 nM | 39.2
sgRNA knockout: sgKEAP1, 10 nM | 36.6
sgRNA knockout: sgKEAP1, 100 nM | 30.4
sgRNA knockout: sgKEAP1, 1000 nM | 33
sgRNA knockout: sgKEAP1, 10000 nM | 43.8
sgRNA knockout: sgNFE2L2, 10 nM | 30.6
sgRNA knockout: sgNFE2L2, 100 nM | 20.8
sgRNA knockout: sgNFE2L2, 1000 nM | 42.8
sgRNA knockout: sgNFE2L2, 10000 nM | 46.6
sgRNA knockout: sgSLC35F2, 10 nM | 27.3
sgRNA knockout: sgSLC35F2, 100 nM | 30.8
sgRNA knockout: sgSLC35F2, 1000 nM | 24.5
sgRNA knockout: sgSLC35F2, 10000 nM | 39.2
sgRNA knockout: sgXBP1, 10 nM | 24.5
sgRNA knockout: sgXBP1, 100 nM | 31.6
sgRNA knockout: sgXBP1, 1000 nM | 44.2
sgRNA knockout: sgXBP1, 10000 nM | 41

Source: the supplement of paper PMC7661543
